# Data taken from the supplement of paper PMC8256030.
# Several values for one entry are separate records, joined by “and”; a condition that tells them apart may be missing. Equal values may be shown once. Where a name gives a salt, the structure may show the parent alone. The list shows a part of the results. This data set is noisy: repeats of one test often differ as much as different tests do.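 HEK293T cells were given each compound shortly before transfection with a reporter in which red mCherry is followed by the SARS-CoV-2 frameshift element and then GFP in the −1 frame, so GFP appears only after frameshifting.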
# Legend:
# [1] = tested on: SARS-CoV-2 -1 PRF reporter mCherry-FSE-GFP(-1); assay: mCherry (red) intensity as percent of control; higher = higher upstream reporter expression; settings: 10 µM; 24 h; HEK293T
# [2] = tested on: SARS-CoV-2 -1 PRF reporter mCherry-FSE-GFP(-1); assay: percent effect, decrease of GFP/mCherry ratio (-1 PRF reporter) relative to controls; higher = stronger frameshift inhibition; settings: 10 µM; 24 h; HEK293T
structure (smiles),measurement,setting,value
CC1(C)S[C@@H]2[C@H](NC(=O)C(C(=O)O)c3ccccc3)C(=O)N2[C@H]1C(=O)O (stereo not given in full) [carbenicillin],mCherry,[1],109%
same,percent effect,[2],-2.54%
CC(C)[C@@H]1CC[C@@H](C)C[C@H]1O [levomenthol],mCherry,[1],102%
same,percent effect,[2],1.28%
C=CCn1c(=O)n([C@@H]2O[C@H](CO)[C@@H](O)[C@H]2O)c2nc(N)[nH]c(=O)c21 [loxoribine],mCherry,[1],95.2%
same,percent effect,[2],-3.18%
NS(=O)(=O)c1cc2c(cc1Cl)CN(C1CCCCC1)C2=O [clorexolone],mCherry,[1],137%
same,percent effect,[2],-9.04%
Cc1cc(C(C)(C)C)c(O)c(C)c1CC1=NCCN1 [oxymetazoline],mCherry,[1],116% and 111%
same,percent effect,[2],-2.36% and 2.59%
CCC(=O)N[C@H]1CC[C@@H](C(=O)N(C)c2ccc(-c3nc4ccccc4o3)cc2)C1,mCherry,[1],47.4%
same,percent effect,[2],-9.78%
CCCCCCc1ccc(O)cc1O,mCherry,[1],98.4%
same,percent effect,[2],-1.14%
C[C@@H]1C[C@H]2[C@@H]3C[C@H](F)C4=CC(=O)C=C[C@]4(C)[C@@]3(F)[C@@H](O)C[C@]2(C)[C@@]1(OC(=O)c1ccco1)C(=O)SCF [fluticasone furoate],mCherry,[1],108%
same,percent effect,[2],2.5%
Cc1ccc(Nc2c(F)cccc2Cl)c(CC(=O)O)c1 [lumiracoxib],mCherry,[1],113%
same,percent effect,[2],-2.68%
CCCCCCCCCCCCCC[n+]1ccc(C)cc1 [miripirium],mCherry,[1],197%
same,percent effect,[2],-22.9%
CCCCOCCOC(=O)c1cccnc1 [nicoboxil],mCherry,[1],104%
same,percent effect,[2],-5.81%
CCCNC(=O)NS(=O)(=O)c1ccc(Cl)cc1 [Chlorpropamide],mCherry,[1],90.7%
same,percent effect,[2],-4%
C#C[C@]1(OC(C)=O)CC[C@H]2[C@@H]3CCC4=C[C@@H](OC(C)=O)CC[C@@H]4[C@H]3CC[C@@]21C,mCherry,[1],94.8%
same,percent effect,[2],-3.55%
COc1cc2c(cc1Cc1cccc(Cl)c1F)c(=O)c(C(=O)O)cn2[C@H](CO)C(C)C [elvitegravir],mCherry,[1],97%
same,percent effect,[2],-4.66%
CCOc1cc(N)c(Cl)cc1C(=O)NCC1CN(Cc2ccc(F)cc2)CCO1 (stereo not given) [mosapride],mCherry,[1],87.7%
same,percent effect,[2],-5.57%
COc1ccc(-c2[nH]c3ccccc3c2-c2ccc(OC)cc2)cc1 [indoxole],mCherry,[1],60.9%
same,percent effect,[2],-3.98%
c1ccc2c(SC3=NCCN3)c[nH]c2c1 [tinazoline],mCherry,[1],95%
same,percent effect,[2],-1.03%
N=C(N)N,mCherry,[1],105%
same,percent effect,[2],1.54%
C=C[C@H]1CN2CC[C@H]1C[C@H]2[C@H](O)c1ccnc2ccc(OC)cc12 [Aflukin],mCherry,[1],128%
same,percent effect,[2],4.34%
CN(C)c1nc(N(C)C)nc(N(C)C)n1 [altretamine],mCherry,[1],104% and 83%
same,percent effect,[2],0.599% and -1.22%
COC(=O)C[C@](O)(CCCC(C)(C)O)C(=O)O[C@@H]1C(OC)=C[C@]23CCCN2CCc2cc4c(cc2[C@H]13)OCO4 [omacetaxine mepesuccinate],mCherry,[1],13%
same,percent effect,[2],-4.23%
CCCCCC(=O)O[C@]1(C(C)=O)CC[C@H]2[C@@H]3CCC4=CC(=O)CC[C@@H]4[C@H]3CC[C@@]21C [gestonorone caproate],mCherry,[1],82.1%
same,percent effect,[2],-3.23%
CN/C(=C\[N+](=O)[O-])NCCSCc1ccc(CN(C)C)o1 [Ranitidine·HCl],mCherry,[1],95.4%
same,percent effect,[2],0.437%
Cc1c(NC(=O)c2cccnc2)c(=O)n(-c2ccccc2)n1C [nifenazone],mCherry,[1],99.5%
same,percent effect,[2],-0.565%
CO[C@@H]1[C@@H](OC(=O)c2ccc(C)[nH]2)[C@@H](O)[C@@H](Oc2ccc3c(O)c(NC(=O)c4c[nH]c(C(=O)Nc5c(O)c6ccc(O[C@H]7OC(C)(C)[C@H](OC)[C@@H](OC(=O)c8ccc(C)[nH]8)[C@H]7O)c(C)c6oc5=O)c4C)c(=O)oc3c2C)OC1(C)C [coumamycin],mCherry,[1],1100%
same,percent effect,[2],-21%
C[C@@H]1C/C=C/C=C/C=C/C=C/[C@H](O[C@@H]2O[C@H](C)[C@@H](O)[C@H](N)[C@@H]2O)C[C@@H]2O[C@](O)(C[C@@H](O)C[C@H]3O[C@@H]3/C=C/C(=O)O1)C[C@H](O)[C@H]2C(=O)O,mCherry,[1],105%
same,percent effect,[2],-4.29%
CNC(=C[N+](=O)[O-])NCCSCc1csc(CN(C)C)n1,mCherry,[1],110%
same,percent effect,[2],-6.47%
O=C1CN(/N=C/c2ccc(-c3ccc([N+](=O)[O-])cc3)o2)C(=O)N1 [dantrolene],mCherry,[1],101%
same,percent effect,[2],-1.7%
CCOc1ccc2nc3cc(N)ccc3c(N)c2c1,mCherry,[1],87.1%
same,percent effect,[2],-8.13%
O=S(=O)(O)CCSSCCS(=O)(=O)O [dimesna],mCherry,[1],107%
same,percent effect,[2],-2.23%
CC(C)(C)NCC(O)COc1cc(Cl)ccc1Cl (stereo not given) [cloranolol],mCherry,[1],98.5%
same,percent effect,[2],-3.52%
O=C1CN(/N=C/c2ccc(-c3ccc(Cl)c(Cl)c3)o2)C(=O)N1 [clodanolene],mCherry,[1],104%
same,percent effect,[2],-8.99%
C[C@H]1O[C@@H](O[C@H]2[C@@H](O)C[C@H](O[C@H]3[C@@H](O)C[C@H](O[C@H]4CC[C@@]5(C)[C@H](CC[C@@H]6[C@@H]5CC[C@]5(C)[C@@H](C7=CC(=O)OC7)CC[C@]65O)C4)O[C@@H]3C)O[C@@H]2C)C[C@H](O)[C@@H]1O [Digitoxin],mCherry,[1],13.4%
same,percent effect,[2],-10.7%
O=C(NCc1ccccc1)OCCO [buramate],mCherry,[1],104%
same,percent effect,[2],-1.87%
CO[C@@H]1[C@@H](OC(N)=O)[C@@H](O)[C@H](Oc2ccc3c(O)c(NC(=O)c4ccc(O)c(CC=C(C)C)c4)c(=O)oc3c2C)OC1(C)C [Novobiocin·Na],mCherry,[1],91.3%
same,percent effect,[2],1.45%

# Copied from above for reference:
structure (smiles),measurement,setting,value
COC(=O)C[C@](O)(CCCC(C)(C)O)C(=O)O[C@@H]1C(OC)=C[C@]23CCCN2CCc2cc4c(cc2[C@H]13)OCO4 [omacetaxine mepesuccinate],percent effect,[2],-4.23%
CCCCCC(=O)O[C@]1(C(C)=O)CC[C@H]2[C@@H]3CCC4=CC(=O)CC[C@@H]4[C@H]3CC[C@@]21C [gestonorone caproate],mCherry,[1],82.1%
same,percent effect,[2],-3.23%
